Consider eight molecules from patent US11795151B2, “Benzotriazole compound” (MIYOSHI OIL & FAT CO., LTD., priority 2017, dated 2023).

SMILES strings stand for the structures.

Data set [1] is described as follows: Ultraviolet-visible absorbance of spin-coated copolymer films. The note with it: film thickness 1 to 10 μm, ultraviolet-visible absorption spectrum. In kind it is physicochemical.
Data set [2] is described as follows: Evaluation of reactivity (1): copolymerization with methyl methacrylate, reaction rate by NMR. The following applies: copolymerization with methyl methacrylate at 90 to 96° C.
Data set [3] in a line: Reactivity in various monomers (2): transparency of polymer copolymerized at maximum solubility. The note with it: Vinyl acetate, compound at maximum solubility concentration. More on the design: key: ∘: Clear with no cloudiness; Δ: Some cloudiness observed, but clear; x: Poor transparency due to cloudiness observed. It counts as physicochemical.

For the molecule `C=CC(=O)OCCCCCCSc1ccc2nn(-c3cc(C)cc(C(C)(C)C)c3O)nc2c1` [Compound 1], the “Yellowing inhibition and long wavelength absorption of copolymer film” value in data set [1] is “superior to Compounds 11 and 12 in terms of yellowing inhibition and long wavelength absorption”. For the same molecule, the figures for the Reaction rate in data set [2] (1 h) and in data set [2] (5 h) were 20.0% and 100.0%, respectively. For the same molecule, the Transparency of polymer result in data set [3] is “Δ”.

Regarding `C=C(C)C(=O)OCCSc1ccc2nn(-c3cc(C)cc(C(C)(C)C)c3O)nc2c1` [Compound 2], the Reaction rate in data set [2] (1 h) was determined as 50.6%; in data set [2] (5 h), 97.7%. For the same molecule, in data set [3], the Transparency of polymer entry is listed as “Δ”.

For `C=C(C)C(=O)OCCCSc1ccc2nn(-c3cc(C)cc(C(C)(C)C)c3O)nc2c1` [Compound 3], the Reaction rate in data set [2] (1 h) is 60.5%; in data set [2] (5 h), 98.6%. Besides, the Transparency of polymer result in data set [3] is on record as “Δ”.

With `C=C(C)C(=O)OCCCCCCSc1ccc2nn(-c3cc(C)cc(C(C)(C)C)c3O)nc2c1` [Compound 4], the “Yellowing inhibition and long wavelength absorption of copolymer film” value in data set [1] is “superior to Compounds 11 and 12 in terms of yellowing inhibition and long wavelength absorption”. Further, the Reaction rate in data set [2] (1 h) came to 61.0%; in data set [2] (5 h), 98.6%.

For `C=C(C)C(=O)Oc1ccc(Sc2ccc3nn(-c4cc(C)cc(C(C)(C)C)c4O)nc3c2)cc1` [Compound 5], the Reaction rate is on record as 22.0% in data set [2] (1 h) and 98.0% in data set [2] (5 h). Also, the Transparency of polymer result in data set [3] is recorded as “Δ”.

For the molecule `C=C(C)C(=O)OCCCCCCOc1ccc(Sc2ccc3nn(-c4cc(C)cc(C(C)(C)C)c4O)nc3c2)cc1` [Compound 6], the Reaction rate in data set [2] (1 h) is reported as 78.7%; in data set [2] (5 h) it was 98.3%. Moreover, in data set [3], the Transparency of polymer result is on record as “Δ”.

In turn, `C=CCSc1ccc2nn(-c3cc(C)cc(C(C)(C)C)c3O)nc2c1` [Compound 10, reference compound] yielded a Reaction rate in data set [2] (10 h) of 5.0%.

Take `C=C(C)C(=O)OCCc1ccc(O)c(-n2nc3ccccc3n2)c1` [Compound 11, reference compound]: the Reaction rate in data set [2] (1 h) came to 22.3%; in data set [2] (5 h), 47.3%. Besides, the Transparency of polymer result in data set [3] is reported as “Δ”.
